The structures appear in SMILES notation. Some of the results follow. Further columns of the screen follow, without active or inactive calls. The list favours compounds with an active or inconclusive main result. Words in brackets tell the shape of the fitted curve; partial curves, single points and poor fits give uncertain potencies.

The nature of this test: qHTS Assay for Lipid Storage Modulators in Drosophila S3 Cells.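 On cell number change: cells counted by Cell Tracker Red CMTPX staining in the red channel.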 To be noted: BODIPY lipid droplet fluorescence, 18-24 h; for cell number change: measured here: cell count max response, cells fed with added oleic acid. Put shortly:
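Drosophila S3 cells loaded with oleic acid (400 uM, as added) and compounds at several concentrations; lipid droplets imaged by 488-nm laser-scanning cytometry, 500–530 nm intensity and object ratio to cell channel. Percent activity normalized to 20 uM Triacsin C.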
On the technique in general: qHTS replaces the single test concentration by a dilution series.

[1] abbreviates: measured here: cell number channel AC50, cells fed with added oleic acid.
Where [2] appears, read: measured here: lipid fluorescence (Fed channel) AC50, cells fed with added oleic acid.

`O=C1C=CN(Cc2ccccc2)CC1`: the cell number change was -32.9%. Further, under setting [1], the AC50 (commonly the concentration at which the activity in the assay is half-maximal) is 32.6 µM [falling, single point]. For the molecule `Cc1nc2sccn2c1P(c1c(C)nc2sccn12)c1c(C)nc2sccn12`, the cell number change was -13.2%. For the molecule `Cc1noc(/C=C/c2ccco2)c1S(=O)(=O)N1CCC(C(=O)N(C)Cc2ccccc2)CC1`, the cell number change was -6.53%. In addition, under setting [2], the AC50 was 0.00517 µM [falling, full curve, poor fit]. Turning to `Cc1cccc2cc(C3CC(c4ccco4)=NN3S(=O)(=O)c3ccccc3)c(Cl)nc12` (centres undefined), the cell number change stood at 25.5%.

For the molecule `CCOc1ccc(S(=O)(=O)N2CCN(C(=O)Cc3ccc(S(=O)(=O)N4CCOCC4)s3)CC2)cc1`, the cell number change is -8.26%. In addition, under setting [2], the AC50 is 23.1 µM [falling, single point]. Regarding `OCCN1CCN(CCOc2ccccc2-c2ccccc2)CC1`, the cell number change is -9.01%. Also, the AC50 under setting [2] is 2.31 µM [rising, single point].

With `Cc1ccc(NC(NC(=O)OCCn2c([N+](=O)[O-])cnc2C)C(Cl)(Cl)Cl)cc1` (centres undefined), under setting [2], the AC50 is 0.0651 µM [rising, full curve, poor fit]. With `COc1ccc(Cl)cc1NC(=O)C/C(C)=N/NC(=O)CCc1ccccc1`, the cell number change is -9.52%. Moreover, the AC50 under setting [2] was 6.51 µM [falling, single point]. As for `O=[N+]([O-])c1ccc(/C=[N+](\[O-])CCO)o1`, the cell number change was 94.4%. For the same molecule, the AC50 under setting [1] was 29.1 µM [rising, single point]. Besides, the AC50 under setting [2] is 14.6 µM [rising, partial curve]. With `Cc1c(C(=O)NCc2cccnc2)sc2nc(-c3ccc(F)cc3)cn12`, the cell number change was -114%. `Cc1nc(Cc2nnc(SC(C)C(=O)N3c4ccccc4NC(=O)C3(C)C)o2)cs1` (centres undefined): the cell number change was 34.5%. The AC50 under setting [1] was 5.8 µM [rising, full curve, poor fit]. For the same molecule, the AC50 under setting [2] is 0.00517 µM [falling, full curve, poor fit].

Consider `CCOc1ccc2ncc(C(=O)c3ccc(OC)cc3)c(N3CCN(CC)CC3)c2c1`, for which the cell number change was 13.6%. Consider `CNC(=O)C1CCC(=O)N1Cc1ccccc1Cl` (centres undefined), for which the AC50 under setting [2] was 25.9 µM [falling, partial curve]. For `CCCn1c(N)c(C(=O)COC(=O)c2c(C)noc2C)c(=O)n(C)c1=O`, the cell number change was -42.2%. Moreover, the AC50 under setting [1] is 9.2 µM [falling, partial curve]. For the same molecule, the AC50 under setting [2] is 2.91 µM [falling, single point]. Consider `COc1ccc(N(C)S(=O)(=O)c2cccc(C(=O)Nc3ccc(-n4cnnn4)cc3)c2)cc1`, for which the cell number change amounted to 17.1%. Moreover, the AC50 under setting [1] was 0.164 µM [falling, full curve, poor fit]. Turning to `Cc1cccc(NC(=O)COC(=O)c2ccc3c(c2)OCO3)c1C`, under setting [1], the AC50 is 0.259 µM [rising, full curve]. With `NC(=O)CSc1nnc(-c2cc(-c3cccs3)nc3ccccc23)o1`, under setting [2], the AC50 is 29.1 µM [rising, single point]. With `O=C1CC(Sc2nnc(-c3ccccc3O)o2)C(=O)N1c1ccccc1` (centres undefined), the cell number change was -37.6%. In addition, under setting [1], the AC50 was 23.1 µM [falling, single point]. Besides, the AC50 under setting [2] was 25.9 µM [falling, single point].

As for `C#CCn1c(O)c(N=NC(=O)C(O)c2ccccc2)c2ccccc21` (centres undefined), the cell number change amounted to 35.5%. Also, under setting [2], the half-maximal activity concentration (AC50) was 0.231 µM [rising, full curve, poor fit]. As to `CCCCC1CCC(C(=O)NCc2ccc3c(c2)OCO3)CC1` (centres undefined), the cell number change was -33.2%. Further, the AC50 under setting [1] is 0.651 µM [falling, full curve]. As to `CN(C)/C=N/c1ncn(-c2ncc(C(F)(F)F)cc2Cl)n1`, the cell number change was -3.76%. On the same count and under the same terms, the value for `COc1ccc(C(=O)OCC(=O)Nc2ccc3c(c2)OCCO3)c(OC)c1` was -0.519%; that for `c1ccc(C2=Nc3ccccc3OC2)cc1` was -4.96%.

In the case of `CCCCOC(=O)Nc1cc(OC)c(Cl)cc1OC`, the cell number change is -34.2%. Moreover, the AC50 under setting [1] was 25.9 µM [falling, single point]. Turning to `Cc1ccccc1OCC(=O)Nc1ccc2c(c1)COC2=O`, the cell number change came out at 39.8%. Besides, the half-maximal activity concentration (AC50) under setting [1] was 9.2 µM [rising, partial curve]. Moreover, the AC50 under setting [2] is 3.66 µM [rising, single point].

In the case of `CCOC(=O)c1c(-c2cccs2)csc1NC(=O)CN1CCOCC1`, the AC50 under setting [1] is 2.59 µM [rising, partial curve] and the AC50 under setting [2] is 5.8 µM [rising, single point]. As to `COc1ccccc1C(CCNCc1ccc(N(C)C)cc1)c1ccc(OC(C)C)cc1` (centres undefined), the cell number change is -61.9%. Moreover, the AC50 under setting [1] is 13 µM [falling, partial curve]. For the same molecule, under setting [2], the AC50 is 18.4 µM [falling, partial curve].

On to `Cn1c(=O)c(C(=O)NC2CCCCCC2)c(O)c2ccccc21`, for which the cell number change stood at 12.2%. Further, the AC50 under setting [2] is 29.1 µM [falling, single point].

As for `Cc1cc(Cl)ccc1NC(=O)CCC(=O)O`, the cell number change turned out to be 106%. Moreover, the AC50 under setting [1] was 4.11 µM [rising, full curve]. Besides, under setting [2], the concentration at half-maximal activity (AC50) was 29.1 µM [rising, single point]. For `COCc1cc(C)nc(NC2CCCCC2)c1C#N`, the cell number change is -26.1%. Also, the AC50 under setting [2] was 16.4 µM [falling, single point]. Turning to `Cc1ccc(C(=O)COc2ccc3ccc(=O)oc3c2)cc1`, the cell number change was 7.62%. Further, the AC50 under setting [2] was 6.51 µM [falling, single point]. `COc1ccc(-c2cc(C(=O)NCCCN3CCCC3=O)c3ccccc3n2)cc1OC`: under setting [2], the AC50 was 0.103 µM [falling, full curve, poor fit]. As for `Cc1ccc(C(=O)Nc2nncs2)cc1S(=O)(=O)N1CCOCC1`, the cell number change was -25.8%. Besides, under setting [1], the AC50 is 0.291 µM [falling, full curve, poor fit]. In addition, the AC50 under setting [2] is 29.1 µM [falling, single point].

Regarding `COc1cccc(CC(=O)Nc2nc(-c3cccnc3)cs2)c1`, the cell number change came to 16.9%. Moreover, the AC50 under setting [2] is 0.116 µM [rising, full curve, poor fit]. Regarding `COCCSc1ccccc1C(=O)N1CCc2ccccc2C1`, the cell number change came to 6.46%. Consider `COC(=O)c1ccc(=O)n(Cc2ccco2)c1`, for which the cell number change is -5.15%. Further, the AC50 under setting [1] was 0.13 µM [rising, full curve, poor fit]. For the same molecule, the AC50 under setting [2] was 0.0291 µM [rising, full curve, poor fit]. In the case of `CCCNC(=O)CCn1c(-c2ccc(C)cc2)cc(C(=O)OCC)c1C`, the cell number change was 46.7%. Besides, the AC50 under setting [1] was 18.4 µM [rising, single point].

Consider `Cc1ccc(NC(=O)CCC(=O)NNC(=S)Nc2ccc(F)cc2)c(C)c1`, for which the cell number change was found to be 3.04%. Under setting [2], the AC50 is 29.1 µM [rising, partial curve, poor fit].

`O=C(COC(=O)Cc1ccc(S(=O)(=O)N2CCOCC2)s1)NCc1ccccc1`: the cell number change was found to be 0.486%. Further, under setting [2], the AC50 was 0.731 µM [falling, full curve].

Source of the values: PubChem BioAssay AID2685 (National Center for Advancing Translational Sciences (NCATS), 2010).
